Reference: article PMC13199644, “Optimized Quantitative Bacterial Two-Hybrid (qB2H) for Protein–Protein Interaction Assessment” (Computational and Structural Biotechnology Journal, 2026)
Results are given in words; binding and its absence hold for the method and conditions named. Some entries that bind do so weakly or less than the wild type. Sequences can lack the tags named with a protein.

Amino acid sequences for entries named in this document (tags omitted). Residues count along the entry.
UniProt Q9NVP2, residues 1-156: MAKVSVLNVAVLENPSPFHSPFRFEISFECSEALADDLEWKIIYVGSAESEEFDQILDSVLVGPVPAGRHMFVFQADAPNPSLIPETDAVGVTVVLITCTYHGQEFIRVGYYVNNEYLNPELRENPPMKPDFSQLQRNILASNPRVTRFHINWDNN

Each binder was assayed against cI_E34P fusion with the N-terminal domain of human ASF1B, ASF1BN (residues 1 to 156) (human) (UniProt Q9NVP2) (assay: two-hybrid; qB2H v4 library of 1,134 N-terminal extension-linker-ip4_mutG peptides in SB39; turbidostat selection 24 and 32 h with kanamycin 209 μg/ml; NGS enrichment).

binding, binds:
AAEEAARFAALLAALPGSKWARLARRTAGAGGVTLNGAG (designed binder), AAEEQAAFDALLAALPGSKWARLARRTAGAGGVTLNGAG (designed binder), AEEEAARFAALLAALPGSKWARLARRTAGAGGVTLNGAG (designed binder)

What follows are binders tested against cI_E34P fusion with the N-terminal domain of human ASF1B, ASF1BN (residues 1 to 156) (human) (UniProt Q9NVP2) (assay: two-hybrid; qB2H v4 library of 1,134 N-terminal extension-linker-ip4_mutG peptides in SB39; short batch selection (4.5 to 5 h) with kanamycin up to 348 μg/ml; NGS enrichment).

binding, binds:
SAAARWAAALAALPGSKWARLARRTAGAGGVTLNGAG (designed binder), AAAERARFAALLAKLPGSKWARLARRTAGAGGVTLNGAG (designed binder), SAAERFAAALAALPGSKWARLARRTAGAGGVTLNGAG (designed binder)
